In paper doi:10.1101/2020.10.29.360719:
Results are given in words; binding and its absence hold for the method and conditions named.

Chains of the proteins cited; added tags and fusions are not shown. Residues count along the entry.
ORF1_(1-53) (disordered N-terminal region of ORF1) (Q9UN81, residues 1-53): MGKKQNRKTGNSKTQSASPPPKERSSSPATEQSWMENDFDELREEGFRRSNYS
ORF1_(53-131) (Q9UN81, residues 53-131): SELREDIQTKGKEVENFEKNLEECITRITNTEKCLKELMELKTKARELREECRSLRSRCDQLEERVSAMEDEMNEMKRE

Molecular target: ORF1_(1-53) (disordered N-terminal region of ORF1) (human) (UniProt Q9UN81)
Experiment: NMR titration

binding: no binding
Substance: ORF1_(53-131) (from UniProt Q9UN81 53-131) (domain or fragment)
